Part of at least one peptide drawing is inferred or uncertain, most often the ends. Where no end group is shown, it is not given here.
Assays:
[1] = LPS binding (Limulus chromogenic assay, surface plasmon resonance); conditions: read-out: apparent binding constant for LPS
[2] = test system: Pseudomonas aeruginosa (13 strains); experiment: Antimicrobial activity against a panel of strains; assay type: cell-based; conditions: multi-resistant strains incl. 9 CF isolates

KNLRRIIRKIIHIIKKYG [Ovispirin, K N L R R I I R K I I H I I K K Y G]
Kd [1]: ~670 µM | strains of Pseudomonas aeruginosa against which potent antimicrobial activity was manifested [2]: 13/13

From patent publication US6492328B2, “Novispirins: antimicrobial peptides” (priority 2000, dated 2002)
